Test results taken from the supplement of paper PMC12819154, “High-throughput peptide-centric local stability assay extends protein–ligand identification to membrane proteins, tissues and bacteria” (Nature Structural & Molecular Biology, 2025).
The other results are listed elsewhere or left out. Small differences around the control level are noise.

The chains behind the UniProt entries cited, without tags or fusion partners. Where a name states a change or a piece, a line headed by the entry shows the natural chain unless it says otherwise.
UniProt Q9QUJ7: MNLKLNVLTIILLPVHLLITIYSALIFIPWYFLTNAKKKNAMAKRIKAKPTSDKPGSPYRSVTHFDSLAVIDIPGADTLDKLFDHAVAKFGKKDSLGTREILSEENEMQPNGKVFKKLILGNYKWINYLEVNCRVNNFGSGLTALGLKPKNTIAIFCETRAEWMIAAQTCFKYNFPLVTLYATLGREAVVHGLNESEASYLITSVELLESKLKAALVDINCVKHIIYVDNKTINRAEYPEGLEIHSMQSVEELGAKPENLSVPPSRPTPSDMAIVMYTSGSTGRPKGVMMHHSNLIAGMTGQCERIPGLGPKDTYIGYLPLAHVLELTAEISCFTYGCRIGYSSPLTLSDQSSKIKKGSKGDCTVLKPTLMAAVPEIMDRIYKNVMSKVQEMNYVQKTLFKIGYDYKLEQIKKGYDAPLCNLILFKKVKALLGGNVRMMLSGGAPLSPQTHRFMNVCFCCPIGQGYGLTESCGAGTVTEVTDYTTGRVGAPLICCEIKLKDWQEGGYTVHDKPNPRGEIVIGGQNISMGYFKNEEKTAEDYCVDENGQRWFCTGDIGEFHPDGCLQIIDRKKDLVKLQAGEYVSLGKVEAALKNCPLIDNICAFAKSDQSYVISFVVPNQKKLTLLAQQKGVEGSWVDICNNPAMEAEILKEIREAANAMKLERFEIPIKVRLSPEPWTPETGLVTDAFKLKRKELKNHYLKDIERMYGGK
UniProt Q9JL19, whole entry: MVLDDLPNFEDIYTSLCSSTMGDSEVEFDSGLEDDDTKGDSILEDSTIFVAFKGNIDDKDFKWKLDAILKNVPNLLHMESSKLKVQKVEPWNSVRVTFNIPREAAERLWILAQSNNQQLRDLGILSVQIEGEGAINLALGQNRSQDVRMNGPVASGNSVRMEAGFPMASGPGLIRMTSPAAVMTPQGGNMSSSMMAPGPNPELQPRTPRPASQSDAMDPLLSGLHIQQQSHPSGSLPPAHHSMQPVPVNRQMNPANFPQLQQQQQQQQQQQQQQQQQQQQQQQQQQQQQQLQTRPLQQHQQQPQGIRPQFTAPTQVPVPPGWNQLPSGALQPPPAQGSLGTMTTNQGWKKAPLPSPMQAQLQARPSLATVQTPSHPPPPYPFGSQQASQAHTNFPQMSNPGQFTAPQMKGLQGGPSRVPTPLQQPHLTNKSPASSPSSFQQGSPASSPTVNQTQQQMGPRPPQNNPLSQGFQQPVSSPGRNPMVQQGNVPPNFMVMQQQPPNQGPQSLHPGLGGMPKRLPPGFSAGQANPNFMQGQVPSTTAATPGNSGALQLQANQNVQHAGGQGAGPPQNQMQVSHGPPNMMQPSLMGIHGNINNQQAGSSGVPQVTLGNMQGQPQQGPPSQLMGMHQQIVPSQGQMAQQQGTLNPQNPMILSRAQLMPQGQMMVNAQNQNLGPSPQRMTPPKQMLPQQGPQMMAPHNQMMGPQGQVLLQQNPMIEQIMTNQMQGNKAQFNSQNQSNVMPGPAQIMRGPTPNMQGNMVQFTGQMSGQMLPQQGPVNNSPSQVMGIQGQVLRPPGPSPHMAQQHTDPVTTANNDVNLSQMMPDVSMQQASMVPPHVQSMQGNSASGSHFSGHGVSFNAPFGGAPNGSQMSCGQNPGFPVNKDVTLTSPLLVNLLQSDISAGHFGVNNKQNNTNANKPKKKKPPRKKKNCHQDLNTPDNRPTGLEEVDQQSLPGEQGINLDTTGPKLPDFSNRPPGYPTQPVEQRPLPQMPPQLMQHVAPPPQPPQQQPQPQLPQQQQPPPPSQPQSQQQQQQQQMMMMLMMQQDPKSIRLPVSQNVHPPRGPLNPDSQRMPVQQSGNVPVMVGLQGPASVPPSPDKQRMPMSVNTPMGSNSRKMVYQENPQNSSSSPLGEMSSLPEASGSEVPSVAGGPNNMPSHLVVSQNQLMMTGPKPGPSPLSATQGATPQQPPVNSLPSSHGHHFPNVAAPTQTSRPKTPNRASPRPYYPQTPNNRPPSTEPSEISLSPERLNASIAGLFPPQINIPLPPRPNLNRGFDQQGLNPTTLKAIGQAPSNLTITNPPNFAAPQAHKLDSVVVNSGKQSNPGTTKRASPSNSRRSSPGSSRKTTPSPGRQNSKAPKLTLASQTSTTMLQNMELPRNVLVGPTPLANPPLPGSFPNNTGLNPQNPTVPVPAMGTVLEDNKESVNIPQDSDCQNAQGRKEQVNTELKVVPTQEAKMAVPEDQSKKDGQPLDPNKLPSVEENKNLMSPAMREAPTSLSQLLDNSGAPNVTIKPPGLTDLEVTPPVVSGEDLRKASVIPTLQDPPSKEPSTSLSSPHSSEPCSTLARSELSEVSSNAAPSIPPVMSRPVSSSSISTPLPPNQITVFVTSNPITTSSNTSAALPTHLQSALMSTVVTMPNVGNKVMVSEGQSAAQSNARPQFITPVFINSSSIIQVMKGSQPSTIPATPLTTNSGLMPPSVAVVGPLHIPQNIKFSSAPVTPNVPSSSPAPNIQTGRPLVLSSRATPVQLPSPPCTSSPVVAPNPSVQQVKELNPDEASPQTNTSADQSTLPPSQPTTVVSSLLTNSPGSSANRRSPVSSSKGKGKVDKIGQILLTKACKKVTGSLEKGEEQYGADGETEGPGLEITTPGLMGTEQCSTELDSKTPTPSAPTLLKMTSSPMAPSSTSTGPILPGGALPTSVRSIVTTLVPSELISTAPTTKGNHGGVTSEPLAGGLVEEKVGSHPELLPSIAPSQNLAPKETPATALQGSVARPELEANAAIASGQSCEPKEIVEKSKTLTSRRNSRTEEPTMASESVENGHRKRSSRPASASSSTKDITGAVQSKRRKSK
UniProt Q9ESC7: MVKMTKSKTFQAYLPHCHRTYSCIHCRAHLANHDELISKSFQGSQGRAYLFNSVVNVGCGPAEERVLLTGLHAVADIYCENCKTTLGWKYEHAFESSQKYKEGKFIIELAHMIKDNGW
UniProt Q9JJ28: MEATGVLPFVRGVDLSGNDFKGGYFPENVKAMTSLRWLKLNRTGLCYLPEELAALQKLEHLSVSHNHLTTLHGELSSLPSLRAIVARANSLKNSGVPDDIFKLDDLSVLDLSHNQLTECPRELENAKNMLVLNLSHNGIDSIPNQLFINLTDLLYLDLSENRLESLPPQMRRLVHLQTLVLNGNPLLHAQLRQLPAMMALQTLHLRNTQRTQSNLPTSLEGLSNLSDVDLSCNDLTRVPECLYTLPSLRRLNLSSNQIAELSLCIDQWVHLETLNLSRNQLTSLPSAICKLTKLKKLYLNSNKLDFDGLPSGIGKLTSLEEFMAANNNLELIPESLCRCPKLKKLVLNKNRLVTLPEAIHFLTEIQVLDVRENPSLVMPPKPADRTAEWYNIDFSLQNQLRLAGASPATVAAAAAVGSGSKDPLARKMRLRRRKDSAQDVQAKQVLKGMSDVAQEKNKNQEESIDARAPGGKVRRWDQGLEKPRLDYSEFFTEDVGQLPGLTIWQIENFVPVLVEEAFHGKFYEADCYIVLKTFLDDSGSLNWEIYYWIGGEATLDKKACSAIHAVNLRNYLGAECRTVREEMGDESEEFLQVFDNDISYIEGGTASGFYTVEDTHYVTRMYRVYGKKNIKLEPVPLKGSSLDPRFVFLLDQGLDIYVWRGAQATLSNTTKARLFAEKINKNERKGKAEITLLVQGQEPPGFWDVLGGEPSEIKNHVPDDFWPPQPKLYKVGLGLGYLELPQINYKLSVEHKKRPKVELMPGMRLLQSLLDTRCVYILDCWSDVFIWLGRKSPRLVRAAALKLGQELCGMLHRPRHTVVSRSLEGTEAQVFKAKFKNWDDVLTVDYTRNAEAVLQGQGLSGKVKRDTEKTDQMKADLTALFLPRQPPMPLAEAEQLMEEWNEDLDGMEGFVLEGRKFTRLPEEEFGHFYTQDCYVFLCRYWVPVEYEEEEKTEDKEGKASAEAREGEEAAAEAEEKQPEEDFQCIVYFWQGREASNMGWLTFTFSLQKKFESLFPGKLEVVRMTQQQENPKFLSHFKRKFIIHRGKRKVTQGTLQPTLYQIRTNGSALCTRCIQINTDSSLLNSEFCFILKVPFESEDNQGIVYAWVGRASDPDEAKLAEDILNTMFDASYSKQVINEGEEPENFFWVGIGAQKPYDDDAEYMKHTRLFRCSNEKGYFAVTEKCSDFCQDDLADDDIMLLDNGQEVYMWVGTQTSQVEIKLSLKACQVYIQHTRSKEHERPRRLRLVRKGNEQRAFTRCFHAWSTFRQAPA
UniProt Q9QUR7, whole entry: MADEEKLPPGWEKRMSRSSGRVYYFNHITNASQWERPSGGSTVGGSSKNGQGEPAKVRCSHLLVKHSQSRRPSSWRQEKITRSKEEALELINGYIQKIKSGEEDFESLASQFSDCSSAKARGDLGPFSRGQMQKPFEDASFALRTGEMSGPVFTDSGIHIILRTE
UniProt Q9JIL5: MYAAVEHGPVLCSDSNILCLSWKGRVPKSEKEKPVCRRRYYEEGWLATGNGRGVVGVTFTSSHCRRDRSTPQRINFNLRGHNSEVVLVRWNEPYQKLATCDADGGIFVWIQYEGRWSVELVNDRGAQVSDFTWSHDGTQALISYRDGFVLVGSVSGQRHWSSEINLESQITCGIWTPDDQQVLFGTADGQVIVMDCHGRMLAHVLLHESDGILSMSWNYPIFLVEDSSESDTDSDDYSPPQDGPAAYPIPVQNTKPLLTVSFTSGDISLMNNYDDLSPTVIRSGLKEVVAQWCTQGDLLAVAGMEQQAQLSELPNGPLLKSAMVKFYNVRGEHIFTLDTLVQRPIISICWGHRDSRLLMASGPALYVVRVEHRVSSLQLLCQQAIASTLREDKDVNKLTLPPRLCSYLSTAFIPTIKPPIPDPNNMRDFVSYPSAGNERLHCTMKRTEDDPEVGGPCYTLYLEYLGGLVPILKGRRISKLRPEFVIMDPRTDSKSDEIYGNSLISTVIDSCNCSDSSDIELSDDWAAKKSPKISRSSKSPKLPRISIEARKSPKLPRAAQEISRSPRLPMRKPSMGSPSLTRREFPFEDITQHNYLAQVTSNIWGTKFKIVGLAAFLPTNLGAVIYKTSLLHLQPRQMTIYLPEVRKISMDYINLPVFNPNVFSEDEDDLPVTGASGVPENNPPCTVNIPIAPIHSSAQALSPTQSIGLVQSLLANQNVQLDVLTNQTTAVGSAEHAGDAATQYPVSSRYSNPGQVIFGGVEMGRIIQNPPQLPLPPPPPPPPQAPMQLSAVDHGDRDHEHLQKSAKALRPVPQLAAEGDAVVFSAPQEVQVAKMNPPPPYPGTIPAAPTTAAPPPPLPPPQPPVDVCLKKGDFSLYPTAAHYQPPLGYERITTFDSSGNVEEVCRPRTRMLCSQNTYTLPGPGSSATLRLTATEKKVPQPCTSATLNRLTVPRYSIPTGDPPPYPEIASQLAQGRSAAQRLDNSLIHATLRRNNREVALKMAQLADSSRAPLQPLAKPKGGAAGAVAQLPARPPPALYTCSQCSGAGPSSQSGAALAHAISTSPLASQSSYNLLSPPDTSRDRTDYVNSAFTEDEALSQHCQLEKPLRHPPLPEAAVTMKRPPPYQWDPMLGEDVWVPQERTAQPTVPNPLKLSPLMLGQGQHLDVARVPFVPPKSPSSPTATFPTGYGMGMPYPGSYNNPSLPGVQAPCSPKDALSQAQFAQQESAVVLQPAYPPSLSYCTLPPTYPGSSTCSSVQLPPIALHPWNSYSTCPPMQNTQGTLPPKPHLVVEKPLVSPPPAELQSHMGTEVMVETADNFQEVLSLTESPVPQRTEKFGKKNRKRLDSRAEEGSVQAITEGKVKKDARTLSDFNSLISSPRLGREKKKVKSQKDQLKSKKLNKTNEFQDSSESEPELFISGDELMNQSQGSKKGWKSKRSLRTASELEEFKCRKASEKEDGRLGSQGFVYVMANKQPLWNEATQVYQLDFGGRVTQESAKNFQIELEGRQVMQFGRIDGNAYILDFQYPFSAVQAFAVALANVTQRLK
UniProt Q9JMG1: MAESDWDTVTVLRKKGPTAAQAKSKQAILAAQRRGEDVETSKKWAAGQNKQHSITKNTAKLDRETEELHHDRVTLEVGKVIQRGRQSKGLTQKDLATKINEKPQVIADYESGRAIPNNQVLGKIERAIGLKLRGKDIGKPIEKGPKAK
UniProt Q9JHH9: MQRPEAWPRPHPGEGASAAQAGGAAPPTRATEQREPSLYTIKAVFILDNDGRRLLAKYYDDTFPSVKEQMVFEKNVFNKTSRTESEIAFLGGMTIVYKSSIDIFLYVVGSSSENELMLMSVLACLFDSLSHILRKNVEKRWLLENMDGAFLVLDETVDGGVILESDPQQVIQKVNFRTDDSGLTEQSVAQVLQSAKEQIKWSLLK
UniProt Q9JM95: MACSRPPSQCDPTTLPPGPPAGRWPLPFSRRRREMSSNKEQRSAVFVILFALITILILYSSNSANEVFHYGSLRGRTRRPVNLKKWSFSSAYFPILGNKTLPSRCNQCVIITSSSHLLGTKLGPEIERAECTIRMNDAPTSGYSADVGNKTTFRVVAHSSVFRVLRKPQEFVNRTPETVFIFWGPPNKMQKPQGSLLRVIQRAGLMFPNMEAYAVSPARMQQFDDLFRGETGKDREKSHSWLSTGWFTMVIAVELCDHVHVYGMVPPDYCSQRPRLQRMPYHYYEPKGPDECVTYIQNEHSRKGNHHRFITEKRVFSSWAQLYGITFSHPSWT

What follows are targets tested with CN[C@@H]1C[C@H]2O[C@@](C)([C@@H]1OC)n1c3ccccc3c3c4c(c5c6ccccc6n2c5c31)C(=O)NC4 [staurosporine] (assay: log2 fold change of tryptic peptide abundance, ligand vs vehicle (limited proteolysis) (log2 ratio); higher = more trypsin-susceptible (destabilized)). Conditions: ligand concentration: 20 uM; sample: mouse liver crude lysate; replicate design: treated separately.

Target	log2 fold change
UniProt Q9JLM9 (peptide sequence: HLQLFSEFSTSHVYMSLAGKKK, peptide start residue: 274)	0.482
UniProt Q9QUJ7 (peptide sequence: VGAPLICCEIK, peptide start residue: 488)	0.217
UniProt Q9JK38 (peptide sequence: KFDYTVSEENYMCRR, peptide start residue: 167)	-0.163
UniProt Q9QWL7 (peptide sequence: ATMQNLNDR, peptide start residue: 74)	-0.0545
UniProt Q9JJQ0 (peptide sequence: NLHGSSGEMK, peptide start residue: 14)	-0.0284
UniProt Q9ESX4 (peptide sequence: RSFQDYTGQK, peptide start residue: 113)	0.322
UniProt Q9JL19 (peptide sequence: MAVPEDQSKK, peptide start residue: 1455)	0.508
UniProt Q9JM76 (peptide sequence: WWTCFVK, peptide start residue: 159)	0.254
UniProt Q9ESC7 (peptide sequence: AHLANHDELISK, peptide start residue: 28)	-0.202
UniProt Q9JJ28 (peptide sequence: ACQVYIQHTR, peptide start residue: 1225)	-0.713
UniProt Q9ES70 (peptide sequence: CSLADFQIEKK, peptide start residue: 40)	0.188
UniProt Q9JIG8 (peptide sequence: IENKIESIGLKR, peptide start residue: 149)	-0.284
UniProt Q9JJH1 (peptide sequence: GICSTTNILCK, peptide start residue: 84)	0.0788
UniProt Q9QUR7 (peptide sequence: NGQGEPAKVRCSHLLVK, peptide start residue: 49)	0.406
UniProt Q9JIL5 (peptide sequence: MAQLADSSR, peptide start residue: 1002)	-0.228
UniProt Q9JJC9 (peptide sequence: THLSNVYPSKPLTKDQR, peptide start residue: 39)	0.197
UniProt Q9ESL4 (peptide sequence: NFSSLNLSSR, peptide start residue: 647)	-0.107
UniProt Q9JLJ5 (peptide sequence: AVQQNGAPATTK, peptide start residue: 264)	-0.0496

Target	log2 fold change
UniProt Q9JHI7 (peptide sequence: FGFAESIANQR, peptide start residue: 282)	0.0426
UniProt Q9JJU8 (peptide sequence: VYIASSSGSTAIK, peptide start residue: 5)	0.151
UniProt Q9JMG1 (peptide sequence: DIGKPIEKGPK, peptide start residue: 136)	0.0934
UniProt Q9JHN8 (peptide sequence: ELALSELLGR, peptide start residue: 206)	0.207
UniProt Q9JJF9 (peptide sequence: SVEDAEDRETR, peptide start residue: 203)	0.351
UniProt Q9JHH9 (peptide sequence: EPSLYTIK, peptide start residue: 35)	0.268
UniProt Q9JKK7 (peptide sequence: VAAAITK, peptide start residue: 330)	-0.142
UniProt Q9JKS4 (peptide sequence: TQSKPEDEADEWAR, peptide start residue: 249)	-0.00289
UniProt Q9JKY5 (peptide sequence: DRFHEQFHSLK, peptide start residue: 251)	0.491
UniProt Q9JME5 (peptide sequence: IAPDVLRK, peptide start residue: 514)	0.199
UniProt Q9JHI9 (peptide sequence: DTEPKPLEGTHLMGEKDSNIR, peptide start residue: 254)	-0.155
UniProt Q9JM93 (peptide sequence: KVVDPETGR, peptide start residue: 178)	-0.183
UniProt Q9JM95 (peptide sequence: VVAHSSVFR, peptide start residue: 155)	0.341
UniProt Q9JMK0 (peptide sequence: SIPHHHRGEVQFLGR, peptide start residue: 326)	0.0362
UniProt Q9ET30 (peptide sequence: YSKEEEMDDMDR, peptide start residue: 253)	-0.0457
UniProt Q9JJB9 (peptide sequence: AVANAIQQEVK, peptide start residue: 58)	0.202
UniProt Q9JLJ2 (peptide sequence: HGYYMTPCILTNCR, peptide start residue: 369)	0.534

In another format: results already given
UniProt Q9JJB9 (peptide sequence: AVANAIQQEVK, peptide start residue: 58)
  log2 fold change: 0.202
UniProt Q9JLJ2 (peptide sequence: HGYYMTPCILTNCR, peptide start residue: 369)
  log2 fold change: 0.534
